The campaign covered roughly 340,000 compounds. About 170 (0.05%) were called active. The inconclusive results got no clear call from the source; some entries with a clear call stand among them for comparison. Calls follow the shape of the dose curve; as a rule, active = well fitted inhibition curve with a large enough effect in the signal ratio, with a control signal flat (not every such curve was filed as active); inconclusive = small, poorly fitted or top-dose-only effect, or effect the other way, or a change in a side signal; inactive = flat fitted curve, though single readings scatter; the % refers to the signal ratio. Potencies beside an inconclusive call are fits to weak or partial responses and may not hold up.
Test: qHTS Assay to Find Inhibitors of Chronic Active B-Cell Receptor Signaling;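 as to activity change, negative = inhibition: plate controls were basal doxycycline-induced cells for no effect and cells given 10 µM MG132 for full effect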
Settings: ABC-DLBCL IkBa-CBG/CBR reporter, luminescence ratio (green luciferase fused to IkBa over red control in TMD8 lymphoma cells), 4 h; activity change, negative = inhibition: at 46.1 µM (top of the series) unless noted
Summary of the method: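 Concentration-response series (up to 46 uM) were applied to TMD8 dual-reporter cells for 4 h at 37C with doxycycline. Green/red ratio, after filter-overlap correction, defined %Activity; red signal alone was normalised to basal cells and zero luminescence.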
Potency is read from the fitted curve at half-maximal effect.

Compound	activity change, negative = inhibition	Potency
CCN(CC)S(=O)(=O)c1ccc(N=N/C(C(C)=O)=C(/C)O)cc1	inconclusive: 4.74%	
COC(=O)c1ccc(NC(=O)CC2C(=O)N(c3ccccc3)C(=O)N2Cc2ccco2)cc1 (stereo not given)	inactive: -0.544%	
Cc1cccc(N2CCN(C(=O)CSc3nnnn3C3CC3)CC2)c1C	inconclusive: 4.41%	
O=C(CN1C(=O)CC(c2ccco2)Sc2ccccc21)Nc1ccccc1F (stereo not given)		inconclusive: 0.461 µM [falling, full curve, poor fit]
C=CCNC(=S)Nc1cc(C)ccn1		inconclusive: 35.5 µM [falling, single point]
Cc1ccc(C)c(-n2c3nc(=O)[nH]c(=O)c-3cc3cc([N+](=O)[O-])ccc32)c1		inconclusive: 3.66 µM [falling, full curve, poor fit]
CC(C)NC(=O)C1CCN(C(=O)N(C)C)CC1	inconclusive: 1.75%	
CCOC(=O)Cc1csc(NC(=O)c2cnc3sc(C)cn3c2=O)n1	inactive: 4.1%	
CCn1c(=O)c2cc(C(=O)NC(C)C)sc2c2ccccc21	inconclusive: 9.69%	
CC1(C)CC(=O)C(C=N)=C(O)C1	inconclusive: 3.17%	
Cc1c(C)n2c(SCC(=O)N3CCCCCC3)nnc2[nH]c1=O	inconclusive: 0.737%	
CC1=NNC(=O)C1C(c1ccc(Cl)cc1)C(C#N)C#N (stereo not given)	inconclusive: -8.12%	
Cc1ccc(S(=O)(=O)N2CCC(C(=O)OCC(=O)N(C)CC(=O)Nc3ccc(F)cc3)CC2)cc1C		inconclusive: 3.26 µM [falling, partial curve, poor fit]
CCOC(=O)C1Cn2c(nc3c(c2=O)C2(CCCC2)Cc2ccccc2-3)S1 (stereo not given)	inconclusive: 0.257%	
C=C[C@@H]1c2cc(C)ccc2N(S(=O)(=O)c2ccc(C)cc2)[C@H](c2ccccc2C(F)(F)F)C1(C#N)C#N	inactive: 1.16%	
COc1ccc(Nc2ccnc(Nc3ccc(OC)cc3)n2)cc1		inconclusive: 16.4 µM [falling, partial curve]
COc1ccccc1C(=O)NCC(=O)NCCc1ccc(Cl)cc1	inconclusive: 2.92%	
CCC(=O)OC1(C)C(=O)C2=COC(c3ccc(OC)cc3)=CC2=C(Br)C1=O (stereo not given)	inconclusive: 8.06%	
COc1ccc(N2CCN(C(=O)c3csc4ccccc34)CC2)cc1	inactive: 0.295%	
COc1cccc(CN2CCN(Cc3ccc4c(c3)OCCO4)CC2CCO)c1 (stereo not given)		inconclusive: 4.47 µM [falling, full curve, poor fit]
Cc1cc(C)c2sc(NC(=O)c3ccc(N4C(=O)CCC4=O)cc3)nc2c1	inconclusive: 15.7%	
COC(=O)Cn1nnc2c(cnn2-c2ccccc2)c1=O	inconclusive: 5.47%	
CCCCNC(=S)NNC(=O)c1csc(C(C)C)c1	inactive: 1.54%	
CCc1ccc(CN(C)C(=O)C2CCC(=O)N(CC3CCCCC3)C2)cc1 (stereo not given)	inactive: 1.08%	
COc1ccc2c(c1)c(=O)oc1cc(OCC(=O)NCC3CCC(C(=O)O)CC3)ccc12 (stereo not given)	inconclusive: 5.26%	
O=C(Cn1nnc(-c2ccc(F)cc2)n1)Nc1cccc(S(=O)(=O)N2CCCC2)c1		inconclusive: 16.4 µM [falling, partial curve, poor fit]
CN(C)CCOc1ccc(C(C)(C)c2ccccc2)cc1	inconclusive: 10.6%	

20 of the compounds above, bar-delimited.
Compound | activity change, negative = inhibition | Potency
COC(=O)c1ccc(NC(=O)CC2C(=O)N(c3ccccc3)C(=O)N2Cc2ccco2)cc1 (stereo not given) | inactive: -0.544% | 
Cc1cccc(N2CCN(C(=O)CSc3nnnn3C3CC3)CC2)c1C | inconclusive: 4.41% | 
O=C(CN1C(=O)CC(c2ccco2)Sc2ccccc21)Nc1ccccc1F (stereo not given) |  | inconclusive: 0.461 µM [falling, full curve, poor fit]
C=CCNC(=S)Nc1cc(C)ccn1 |  | inconclusive: 35.5 µM [falling, single point]
Cc1ccc(C)c(-n2c3nc(=O)[nH]c(=O)c-3cc3cc([N+](=O)[O-])ccc32)c1 |  | inconclusive: 3.66 µM [falling, full curve, poor fit]
CC(C)NC(=O)C1CCN(C(=O)N(C)C)CC1 | inconclusive: 1.75% | 
CCOC(=O)Cc1csc(NC(=O)c2cnc3sc(C)cn3c2=O)n1 | inactive: 4.1% | 
CCn1c(=O)c2cc(C(=O)NC(C)C)sc2c2ccccc21 | inconclusive: 9.69% | 
CC1(C)CC(=O)C(C=N)=C(O)C1 | inconclusive: 3.17% | 
Cc1c(C)n2c(SCC(=O)N3CCCCCC3)nnc2[nH]c1=O | inconclusive: 0.737% | 
CC1=NNC(=O)C1C(c1ccc(Cl)cc1)C(C#N)C#N (stereo not given) | inconclusive: -8.12% | 
Cc1ccc(S(=O)(=O)N2CCC(C(=O)OCC(=O)N(C)CC(=O)Nc3ccc(F)cc3)CC2)cc1C |  | inconclusive: 3.26 µM [falling, partial curve, poor fit]
CCOC(=O)C1Cn2c(nc3c(c2=O)C2(CCCC2)Cc2ccccc2-3)S1 (stereo not given) | inconclusive: 0.257% | 
C=C[C@@H]1c2cc(C)ccc2N(S(=O)(=O)c2ccc(C)cc2)[C@H](c2ccccc2C(F)(F)F)C1(C#N)C#N | inactive: 1.16% | 
COc1ccc(Nc2ccnc(Nc3ccc(OC)cc3)n2)cc1 |  | inconclusive: 16.4 µM [falling, partial curve]
COc1ccccc1C(=O)NCC(=O)NCCc1ccc(Cl)cc1 | inconclusive: 2.92% | 
CCC(=O)OC1(C)C(=O)C2=COC(c3ccc(OC)cc3)=CC2=C(Br)C1=O (stereo not given) | inconclusive: 8.06% | 
COc1ccc(N2CCN(C(=O)c3csc4ccccc34)CC2)cc1 | inactive: 0.295% | 
COc1cccc(CN2CCN(Cc3ccc4c(c3)OCCO4)CC2CCO)c1 (stereo not given) |  | inconclusive: 4.47 µM [falling, full curve, poor fit]
Cc1cc(C)c2sc(NC(=O)c3ccc(N4C(=O)CCC4=O)cc3)nc2c1 | inconclusive: 15.7% | 

(list continues)

Compound	activity change, negative = inhibition	Potency
COc1ccccc1N(CC(O)COc1ccc(C)cc1)S(=O)(=O)c1ccccc1 (stereo not given)	inactive: 11.6%	
CCOc1ccc(Br)cc1S(=O)(=O)NC1CC(C)(C)NC(C)(C)C1	inactive: -2.54%	
CSc1ccc(CN(C)C(=O)c2cc(=O)[nH]c3ccccc23)cc1	inconclusive: 2.78%	
CCN(c1ccc(OC)cc1)S(=O)(=O)N1CCCC(C(=O)NCc2ccccc2Br)C1 (stereo not given)	inconclusive: -6.94%	
O=C(NC1CCCCC1)c1cc(-c2ccc(O)cc2)on1		inconclusive: 3.98 µM [falling, partial curve]
CC1Cc2ccccc2N1C(=O)CCS(=O)(=O)c1cccs1 (stereo not given)	inconclusive: 3.24%	
COc1ccc(COc2cc(-c3cccc(OC)c3)nc3ccc(NC(=O)c4ccc(OC)cc4)cc23)cc1		inconclusive: 20.6 µM [falling, single point]
COc1ccc(NC(=O)c2cccc(N3C(=O)C4C5C=CC(C6CC56)C4C3=O)c2)c(OC)c1 (stereo not given)		inconclusive: 31.6 µM [falling, single point]
CC1CC(C)CN(CCOCCSc2ccc(Cl)cc2)C1 (stereo not given)		inconclusive: 35.5 µM [falling, single point]
Cc1ccc(-c2onc(C)c2C)cc1S(=O)(=O)N1CCOc2ccccc21	inactive: 13.8%	
CC(C)(C)OC(=O)N/N=C/c1cccn1-c1ccc([N+](=O)[O-])cc1	inactive: -0.042%	
Cc1cccc(C(=O)Nc2ccc(O)cc2)c1	inactive: 4.05%	
Cc1cc(F)ccc1NC(=O)C(C)n1c2ccccc2c2nc(=O)cc(C)n21 (stereo not given)	inconclusive: -10.2%	
Cc1cc2ncn(CCOc3ccccc3C#N)c2cc1C		inconclusive: 2.06 µM [falling, partial curve, poor fit]
CC(=O)N1C(=O)/C(=C2\SC(=S)N(NC(=O)c3ccc(O)cc3)C2=O)c2ccccc21		inconclusive: 17.8 µM [falling, partial curve]
CC(c1nc2ccccc2c(=O)[nH]1)N(C)CCOc1ccc(Cl)cc1 (stereo not given)	inconclusive: 8.41%	
O=C(CSc1n[nH]c(-c2ccccc2O)n1)N1CCCc2ccccc21	inactive: 2.51%	
CC1=NN(C(N)=S)C(=O)C1N=Nc1cccc(C(=O)O)c1 (stereo not given)		inconclusive: 0.631 µM [rising, partial curve, poor fit]
Cc1ccc(-c2nc3c4ccccc4n(CC(=O)N4CCN(c5ccc(F)cc5)CC4)c(=O)n3n2)cc1	inactive: 11.1%	
COc1ccc(CCNC(=O)C2CCCN2C(=O)NC2CCCCC2)cc1OC (stereo not given)	inconclusive: 1.11%	
CCc1ccc(NC(=O)C(=O)NCCN2CCN(C(=O)c3ccco3)CC2)cc1	inconclusive: 8.01%	
O=C(Nc1ccc(N2CCOCC2)cc1)c1nc2ccccc2s1	inconclusive: -16.7%	
COc1cc(/C=C2/C(=N)N3C(=NC2=O)SN=C3S(C)(=O)=O)ccc1OC(=O)c1ccco1	inactive: 3.18%	
CC(=O)Nc1nc2ccc(C(=O)NC3CCCCC3)cc2s1		inconclusive: 32.6 µM [falling, single point]
CCN(CC)CCNC(=O)c1cc2c(-c3ccc(Cl)cc3)nn(C)c2s1	inconclusive: 14.7%	
CCCCN(C(=O)CSc1nc2ccccc2n1CC)C1CCS(=O)(=O)C1 (stereo not given)	inconclusive: 3.49%	
O=C(O)CCc1ccc(-c2ccc(Cl)cc2)n1Cc1ccco1		inconclusive: 10.3 µM [rising, partial curve, poor fit]

Compound	activity change, negative = inhibition	Potency
COc1ccccc1NC(=O)OC(C)c1ccc(Cl)cc1 (stereo not given)	inconclusive: 14.7%	
CCOC(=O)c1sc(NC(=O)C2CC2)nc1C	inconclusive: 6.09%	
CCOc1ccc2nc(N3C(=O)/C(=C/c4ccc(Cl)cc4)NC3=S)sc2c1	inactive: 2.2%	
CN1CCN(Cc2nc(-c3cccs3)no2)CC1c1ccccc1 (stereo not given)	inconclusive: -6.16%	
COc1ccc(-n2cc3c(-c4cccc(Br)c4)nnc(C)c3n2)cc1	inconclusive: -9.67%	
COc1ccc(CNc2nc(-c3ccccc3)nc3ccccc23)cc1OC	inconclusive: -0.844%	
COC(=O)c1[nH]c2cc(C)ccc2c1NC(=O)CN1CCc2cc(OC)c(OC)cc2C1	inactive: -2.52%	
C=CCn1c(SCc2cc(C(C)=O)ccc2OCC)nc2ccccc2c1=O	inactive: -17.5%	
O=S(=O)(Nc1ccc2c(c1)nc1n2CCN(Cc2ccccc2)C1)c1ccc(Cl)cc1	inconclusive: -2.33%	
Cc1ccc(NC(=O)CS(=O)(=O)c2c[nH]c3ccccc23)c(C)c1		inconclusive: 6.31 µM [falling, partial curve, poor fit]
C/C(=N/NC(=O)CNC(=O)c1ccncc1)c1ccco1	inconclusive: -15.9%	
Cc1cccc(C)c1NC(=O)CSc1nnc(-c2ccccc2)n1Cc1ccc2c(c1)OCO2	inconclusive: -16.1%	
COc1cc(OC)cc(C(=O)Nc2cc(NC(=O)c3ccco3)ccc2OC)c1	inactive: 1.81%	
Oc1cccc(/C=N/N2CCN(c3ccccn3)CC2)c1	inconclusive: -4.03%	
CC(C)OC(=O)c1c2c(n3ccccc13)C(=O)c1ccccc1C2=O	inconclusive: -18%	
O=C(CCCN1C(=O)c2ccccc2C1=O)N1CCc2ccccc2C1	inactive: 12.9%	
CCCCn1c(-c2csc(C(C)C)c2)n[nH]c1=S	inconclusive: -0.514%	
CN(C)CCNC(=O)c1cc(Sc2ccc(F)cc2)nc2ccccc12	inconclusive: -8.64%	
COc1ccc(C2(C)NC(=O)N(CC(=O)c3cc(C)n(C4CC4)c3C)C2=O)cc1OC (stereo not given)	inconclusive: -9.31%	
Cc1[nH]c2c(C(=O)N3CCCC(CCC(=O)NCc4ccccc4F)C3)cccc2c1C (stereo not given)		inconclusive: 5.01 µM [falling, partial curve, poor fit]
CC(C)c1ccc(NC(=S)NC2CCN(Cc3ccccc3)CC2)cc1	inconclusive: 0.618%	
Cc1ccccc1-n1c(SCC(=O)c2ccccc2)nnc1-c1ccc(F)cc1	inactive: -1.4%	
Cc1cc(O)c(C(C[N+](=O)[O-])c2ccc(Cl)cc2)c(=O)o1 (stereo not given)	inconclusive: -15.2%	
Cn1cc(Cl)c(C(=O)Nc2cccc(Cl)c2Cl)n1		inconclusive: 6.51 µM [falling, partial curve]
CCOC(=O)c1sc2nc(CC(=O)OC)nc(NCc3ccc(F)cc3)c2c1C	inactive: 2.87%	
COc1ccc(-c2nn(-c3ccccc3)cc2C(=O)Nc2ccc(C(=O)O)cc2)cc1	inconclusive: -13%	
